Experimental findings from PMC4882601, “Binding of Human Fibrinogen to MRP Enhances Streptococcus suis Survival in Host Blood in a αXβ2 Integrin-dependent Manner” (Scientific Reports, 2016) are described below.

Amino acid sequences for entries named in this document (tags omitted). A change or cut given only in a name is not applied to a line headed by its entry.
UniProt P02671: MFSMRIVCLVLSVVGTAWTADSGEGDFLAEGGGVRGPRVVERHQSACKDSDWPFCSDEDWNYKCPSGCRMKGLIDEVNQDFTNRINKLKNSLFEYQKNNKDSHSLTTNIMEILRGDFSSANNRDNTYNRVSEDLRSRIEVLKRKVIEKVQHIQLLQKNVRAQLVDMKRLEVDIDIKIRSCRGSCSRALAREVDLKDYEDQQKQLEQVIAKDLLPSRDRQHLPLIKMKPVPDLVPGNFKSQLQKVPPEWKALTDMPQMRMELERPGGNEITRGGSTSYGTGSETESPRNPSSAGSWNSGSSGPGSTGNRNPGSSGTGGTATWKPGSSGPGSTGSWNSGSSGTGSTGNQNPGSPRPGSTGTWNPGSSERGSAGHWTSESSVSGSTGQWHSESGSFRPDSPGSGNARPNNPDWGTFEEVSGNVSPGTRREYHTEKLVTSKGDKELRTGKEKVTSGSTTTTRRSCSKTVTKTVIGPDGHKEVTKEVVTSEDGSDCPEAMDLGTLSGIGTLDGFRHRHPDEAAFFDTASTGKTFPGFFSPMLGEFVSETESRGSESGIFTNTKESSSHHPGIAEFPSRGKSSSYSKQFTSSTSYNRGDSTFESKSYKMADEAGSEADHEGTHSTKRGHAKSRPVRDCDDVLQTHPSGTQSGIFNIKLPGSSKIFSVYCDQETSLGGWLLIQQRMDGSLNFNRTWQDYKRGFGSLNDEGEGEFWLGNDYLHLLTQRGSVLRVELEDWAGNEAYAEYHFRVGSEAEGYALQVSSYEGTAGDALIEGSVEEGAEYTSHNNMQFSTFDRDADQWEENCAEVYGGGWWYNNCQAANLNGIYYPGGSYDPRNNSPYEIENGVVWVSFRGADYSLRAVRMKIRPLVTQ

In this assay the target is human fibrinogen Aα chain (human) (UniProt P02671). The experiment in a line: far-Western, overlay or dot blot; purified hFg separated by reducing SDS-PAGE, transferred to PVDF, probed with biotinylated hisMRP proteins (20 μg/ml), detected with HRP-streptavidin; both purified.

Results are given in words; binding and its absence hold for the method and conditions named. A result given as binding can be weak or reduced; the word gives no strength. Where a sequence is shown, tags or fusion partners need not be part of it.

B1: hisMRP-N2 (a.a. 283-721 of muramidase-released protein, mainly consisting of β-sheets) (domain or fragment, UniProt P32653 283-721)
chain: TAVLAELVSRTTGDVLEKYTIEPGESVTFSHPTKVNANNSNITVTYDTSLASANTPGALKFSANDDVYSTIIVPAYQINTTRYVTESGKVLATYGLQTIAGQVVTPSSVRVFTGYDYVATTTKAVQGPYPKGTVYLAGTVQKDTVQYKVIREIVENDQAVLKFYYLDPTYKGEVDWRGTDTTGFIELLTTSPTTYKVGTIYDYNINSKITAPFTIDPTKNVMVFKESEQNEQGSKYRVIAQWSGDETTKGIYGKIYIATQVWTTKLGTNEWGWFDYSDDQAGIKFNNKGFWPAGVQNTLRNATPATAVETTYIYKESSKYGDVIVEYYDTDGKQIVNSVVDTPKSALGTEYNTDVDRRPASLVAADGTVYFYKEVKSDSAKTTGTVVAGTTTVKYVYEKAGSVNVNFVDINGKVIKAPVSDEKDAKPGYNYDTDLDQKL
modifications: biotin (in the far-Western and on the BLI biosensors)
For the molecule B1, the binding entry is reported as “binds”.

B2: hisMRP-N (a.a. 48-721, the N-terminus of muramidase-released protein) (domain or fragment)
chain: DETVASSEPTIASSVAPASTEAVAEEAEKTNAENTSAVATTSTEVEKAKAVLEQVTSESPLLAGLGQKELAKTEDATLAKAIEDAQTKLAAAKAILADSEATVEQVEAQVAAVKVANEALGNELQKYTVDGLLTAALDTVAPDTTASTLKVGDGEGTLLDSTTTATPSMAEPNGAAIAPHTLRTQDGIKATSEPNWYTFESYDLYSYNKNMASSTYKGAEVDAYIRYSLDNDSSTTAVLAELVSRTTGDVLEKYTIEPGESVTFSHPTKVNANNSNITVTYDTSLASANTPGALKFSANDDVYSTIIVPAYQINTTRYVTESGKVLATYGLQTIAGQVVTPSSVRVFTGYDYVATTTKAVQGPYPKGTVYLAGTVQKDTVQYKVIREIVENDQAVLKFYYLDPTYKGEVDWRGTDTTGFIELLTTSPTTYKVGTIYDYNINSKITAPFTIDPTKNVMVFKESEQNEQGSKYRVIAQWSGDETTKGIYGKIYIATQVWTTKLGTNEWGWFDYSDDQAGIKFNNKGFWPAGVQNTLRNATPATAVETTYIYKESSKYGDVIVEYYDTDGKQIVNSVVDTPKSALGTEYNTDVDRRPASLVAADGTVYFYKEVKSDSAKTTGTVVAGTTTVKYVYEKAGSVNVNFVDINGKVIKAPVSDEKDAKPGYNYDTDLDQKL
modifications: biotin (in the far-Western and on the BLI biosensors)
notes: Muramidase-released protein (MRP) of Streptococcus suis serotype 2 strain 05ZYH33, gene SSU05_0753, residues 48-721; also called hisMRP-N_(48-721); source: cloned into pET-28a, expressed, purified by Ni-chelating chromatography
For B2, the binding result is “binds”.
